# Values of other authors as cited in US20090054529A1, “Flow Path Conditioner System” (priority 2005, published 2009).
# For at least one compound, name, drawing or mass did not settle the structure.
# Key:
# [1] = cited from earlier work
# [2] = cited from earlier work; remark: listed apart in the source
smiles,measurement,setting,value
"CCC(C)=O [2-butanone (MEK), 2-butanone]",water miscibility,[1],~25%
same,flash point,[2],−4 °C
